Values quoted from earlier work, collected in patent US20250312309A1, “ALLYL-AND PROPARGYLAMINE-TYPE PHENE[…] T[…] TREATING MEDICAL DISORDERS” (Mind Medicine, Inc., priority 2023, published 2025).
“And” between values parts separate entries of the source, which are not always exact repeats. Equal entries are not always repeated.

Details: humans; cited from earlier work

Structure (SMILES) | duration of action / psychoactive effects
COc1cc(CC(C)N)c(OC)cc1C (centres unmarked) [DOM, 2,5-dimethoxy-4-methylamphetamine] | 14 to 20 h
CCN(CC)C(=O)[C@@H]1C=C2c3cccc4[nH]cc(c34)C[C@H]2N(C)C1 [LSD, lysergic acid diethylamide] | 8 to 14 h and 8 to 12 h
